# ± gives the standard deviation of the averaged measurements. Some of the results follow.
# Biological target: T1, B8ZZ50 and related entries (UniProt O60573)
# T1 sequence (whole entry): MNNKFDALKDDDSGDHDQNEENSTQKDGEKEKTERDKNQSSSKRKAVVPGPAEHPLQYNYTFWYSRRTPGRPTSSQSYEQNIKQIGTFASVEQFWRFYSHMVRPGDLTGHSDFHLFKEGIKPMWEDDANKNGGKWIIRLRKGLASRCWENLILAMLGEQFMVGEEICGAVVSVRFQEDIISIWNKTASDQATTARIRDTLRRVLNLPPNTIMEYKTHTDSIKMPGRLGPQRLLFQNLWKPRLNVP
# Assay: NP40-soluble protein abundance relative to vehicle (solubility fold change) (ratio); higher = more soluble protein in presence of GTP
# Experimental: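 Solubility proteome profiling in Jurkat crude lysate. Lysate was treated with Mg-GTP (0.1-10 mM) for 10 min at room temperature and 3 min at 37 °C, then solubilised with 0.8% NP40 and benzonase, followed by ultracentrifugation. Proteins were quantified by TMT10 LC-MS/MS; the value is the NP40-soluble abundance relative to the NP40-processed vehicle, from 3 independent experiments.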
smiles,measurement,setting,value
Nc1nc2c(ncn2[C@@H]2O[C@H](COP(=O)(O)OP(=O)(O)OP(=O)(O)O)[C@@H](O)[C@H]2O)c(=O)[nH]1 [guanosine triphosphate],NP40-soluble protein abundance,concentration: 0.1mM,1.02 ± 0.075
same,NP40-soluble protein abundance,concentration: 0.5mM,1.05 ± 0.018
same,NP40-soluble protein abundance,concentration: 1mM,1.04 ± 0.12
same,NP40-soluble protein abundance,concentration: 2mM,1.12 ± 0.096
same,NP40-soluble protein abundance,concentration: 4mM,1.15 ± 0.072
same,NP40-soluble protein abundance,concentration: 6mM,1.2 ± 0.15
same,NP40-soluble protein abundance,concentration: 8mM,1.13 ± 0.08
same,NP40-soluble protein abundance,concentration: 10mM,1.21 ± 0.14

# — the supplement of paper PMC6411743
